# Results reported in the supplement of paper PMC4749390.
# Where a name gives a salt, the structure may show the parent alone. The list shows a part of the results. Repeats in this data set agree poorly, so a single value says little.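 JEG3 cells stably express tetracycline-inducible wild-type human LRH-1, a highly sumoylated nuclear receptor. SUMO-sensitive transcripts APOC3 and MUC1, increased by SUMO-deficient LRH-1 or UBC9 knockdown, were quantified by RT-qPCR relative to TBP and DMSO controls. Primary hits had robust Z-scores above +2 or below -2, before toxicity and TBP filtering.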
# Tested on: JEG3 expressing hLRH-1
# Assay: MUC1 transcript change (ddCt vs TBP and DMSO), Z-score over library; higher = higher MUC1 expression
# Details: 10 µM; time (hr): 24
row,Compound,MUC1 transcript change (Z-score)
1,CCN(CC)CCNC(=O)c1cc(S(C)(=O)=O)ccc1OC [tiapride hydrochloride],0.568
2,O=C1CN(/N=C/c2ccc(-c3ccc([N+](=O)[O-])cc3)o2)C(=O)N1 [dantrolene sodium],0.143
3,Nc1nnc(-c2cccc(Cl)c2Cl)c(N)n1 [lamotrigine],-0.256
4,CC(=O)Oc1ccccc1C(=O)O [aspirin],0.52
5,COCCCC/C(=N\OCCN)c1ccc(C(F)(F)F)cc1 [fluvoxamine maleate],0.387
6,Cc1c2oc3c(C)ccc(C(=O)OC(C)C4NC(=O)C(C(C)C)N(C)C(=O)CN(C)C(=O)C5CCCN5C(=O)C(C(C)C)NC4=O)c3nc-2c(C(=O)OC(C)C2NC(=O)C(C(C)C)N(C)C(=O)CN(C)C(=O)C3CCCN3C(=O)C(C(C)C)NC2=O)c(N)c1=O (stereo not drawn) [dactinomycin],6.13
7,CC(C)(C#N)c1cc(Cn2cncn2)cc(C(C)(C)C#N)c1 [anastrozole],0.503
8,O=NN(CCCl)C(=O)NCCCl [carmustine],0.968
9,Cc1ncc(CO)c(CO)c1O [pyridoxine],0.52
10,CC(=O)O[C@]1(C(C)=O)CCC2C3C[C@H](C)C4=CC(=O)CC[C@]4(C)C3CC[C@@]21C (stereo partly drawn) [medroxyprogesterone acetate],0.615
11,CN1CC(=O)N2[C@H](c3ccc4c(c3)OCO4)c3[nH]c4ccccc4c3C[C@@H]2C1=O [tadalafil],1.27
12,N[C@@H](CCC(=O)N[C@@H](CS)C(=O)NCC(=O)O)C(=O)O [glutathione],-0.0552
13,CCN(CC)C(=O)c1cccc(C)c1 [deet],-0.219
14,CCN(CC)C(=O)c1cccnc1 [nikethamide],-3.15
15,CCCCCCCCCC(=O)N[C@@H](Cc1c[nH]c2ccccc12)C(=O)N[C@@H](CC(N)=O)C(=O)N[C@@H](CC(=O)O)C(=O)N[C@@H]1C(=O)NCC(=O)N[C@@H](CCCN)C(=O)N[C@@H](CC(=O)O)C(=O)N[C@H](C)C(=O)N[C@@H](CC(=O)O)C(=O)NCC(=O)N[C@H](CO)C(=O)NC([C@@H](C)CC(=O)O)C(=O)N[C@@H](CC(=O)c2ccccc2N)C(=O)O[C@H]1C (stereo partly drawn) [daptomycin (5 millimolar/dmso)],0.497
16,CC(=O)N(CC(O)CN(C(C)=O)c1c(I)c(C(=O)NCC(O)CO)c(I)c(C(=O)NCC(O)CO)c1I)c1c(I)c(C(=O)NCC(O)CO)c(I)c(C(=O)NCC(O)CO)c1I (stereo not drawn) [iodixanol],-0.485
17,NC(=O)N1c2ccccc2C=Cc2ccccc21 [Carbamazepine],0.481
18,CC(O)C(=O)O (stereo not drawn) [ammonium lactate],0.164
19,CC(C)(C)c1ccc(C(O)CCCN2CCC(C(O)(c3ccccc3)c3ccccc3)CC2)cc1 (stereo not drawn) [terfenadine],-0.21
20,N[C@@H](Cc1cc(I)c(Oc2cc(I)c(O)c(I)c2)c(I)c1)C(=O)O [thyroxine],0.342
21,Oc1nc2ccccc2n1CCCN1CCC(n2c(O)nc3cc(Cl)ccc32)CC1 [Domperidone],0.814
22,CN1Cc2c(N)cccc2C(c2ccccc2)C1 (stereo not drawn) [Nomifensine maleate],0.702
23,Cc1cc(CC(=O)O)n(C)c1C(=O)c1ccc(Cl)cc1 [zomepirac sodium],-0.34
24,Nc1ccc(C(=O)O)cc1 [potassium p-aminobenzoate],1.24
25,Cc1cnc(NC(=O)C2=C(O)c3ccccc3S(=O)(=O)N2C)s1 [meloxicam],0.823

row,Compound,MUC1 transcript change (Z-score)
1,CC(=O)O[C@@]12CO[C@@H]1C[C@H](O)[C@@]1(C)C(=O)[C@H](O)C3=C(C)[C@@H](OC(=O)[C@H](O)[C@@H](NC(=O)OC(C)(C)C)c4ccccc4)C[C@@](O)([C@@H](OC(=O)c4ccccc4)[C@H]21)C3(C)C [docetaxel],-0.909
2,CCCCC(=O)O[C@H]1CC[C@H]2[C@@H]3CCc4cc(O)ccc4[C@H]3CC[C@]12C [estradiol valerate],0.135
3,O=C(OC[C@H]1O[C@@H](OC(=O)c2cc(O)c(O)c(OC(=O)c3cc(O)c(O)c(O)c3)c2)[C@H](OC(=O)c2cc(O)c(O)c(OC(=O)c3cc(O)c(O)c(O)c3)c2)[C@@H](OC(=O)c2cc(O)c(O)c(OC(=O)c3cc(O)c(O)c(O)c3)c2)[C@@H]1OC(=O)c1cc(O)c(O)c(OC(=O)c2cc(O)c(O)c(O)c2)c1)c1cc(O)c(O)c(OC(=O)c2cc(O)c(O)c(O)c2)c1 [tannic acid],4.32
4,Cc1ccc(Nc2c(F)cccc2Cl)c(CC(=O)O)c1 [lumiracoxib],-0.166
5,CCOc1ccc2ccccc2c1NC(=O)[C@@H]1C(=O)N2C(C(=O)O)C(C)(C)S[C@H]12 (stereo partly drawn) [nafcillin sodium],-0.507
6,CC(CNCCc1ccc(O)c(O)c1)Cc1cccc(O)c1 (stereo not drawn) [dobutamine hydrochloride],-0.186
7,Cc1ccc2c(Br)cc(Br)c(OC(=O)c3ccccc3)c2n1 [broxaldine],1.91
8,Cc1cccc(C(=O)O)c1O [hydroxytoluic acid],-0.582
9,CN(C/C=C/C#CC(C)(C)C)Cc1cccc2ccccc12 [terbinafine hydrochloride],-0.302
10,O=C1NC(=O)C(c2ccccc2)(c2ccccc2)N1 [Phenytoin sodium],-0.192
11,CCN(Cc1ccncc1)C(=O)C(CO)c1ccccc1 (stereo not drawn) [Tropicamide],-0.144
12,COc1cc(O)cc(C(=O)c2ccccc2)c1S(=O)(=O)O [sulisobenzone],0.0942
13,COc1cccc2c1C(=O)c1c(O)c3c(c(O)c1C2=O)C[C@@](O)(C(=O)CO)C[C@@H]3O[C@H]1C[C@H](N)[C@H](O)[C@H](C)O1 [doxorubicin],5.38
14,CC1(C)S[C@@H]2[C@H](NC(=O)[C@H](N)c3ccc(O)cc3)C(=O)N2[C@H]1C(=O)O [amoxicillin],0.59
15,COc1c2occc2cc2ccc(=O)oc12 [methoxsalen],-1.19
16,COc1nc(N)nc2c1ncn2C1O[C@H](CO)[C@@H](O)[C@@H]1O (stereo partly drawn) [nelarabin],-0.371
17,CC1CCc2cc(F)cc3c(=O)c(C(=O)O)cn1c23 (stereo not drawn) [flumequine],-0.233
18,C[C@]12CCC3c4ccc(O)cc4CCC3C1CC[C@@H]2O (stereo partly drawn) [estradiol],0.103
19,NC(=O)C(c1ccccc1)(c1ccccc1)C1CCN(CCc2ccc3c(c2)CCO3)C1 (stereo not drawn) [darifenacin hydrobromide],0.538
20,c1ccc2c(c1)CCCC2C1=NCCN1 (stereo not drawn) [tetrahydrozoline hydrochloride],-0.302
21,CNCCCN1c2ccccc2CCc2ccccc21 [Desipramine hydrochloride],-0.269
22,CCO/C(O)=C1\C(C)=NC(C)=C(C(=O)OC)C1c1cccc([N+](=O)[O-])c1 (stereo not drawn) [Nitrendipine],-0.589
23,CC(C(=O)O)c1ccc(-c2ccccc2)c(F)c1 (stereo not drawn) [flurbiprofen],0.298
24,CCCCCCOc1ccccc1C(N)=O [exalamide],-0.466
25,CO/N=C(\C(=O)N[C@@H]1C(=O)N2C(C(=O)OCOC(=O)C(C)(C)C)=C(/C=C\c3scnc3C)CS[C@H]12)c1csc(N)n1 [cefditorin pivoxil],-0.811

# Exported bar-delimited: part of the list above.
row | Compound | MUC1 transcript change (Z-score)
8 | Cc1cccc(C(=O)O)c1O [hydroxytoluic acid] | -0.582
20 | c1ccc2c(c1)CCCC2C1=NCCN1 (stereo not drawn) [tetrahydrozoline hydrochloride] | -0.302

# More compounds follow.

row,Compound,MUC1 transcript change (Z-score)
1,Cc1nc(COP(=O)(O)O)cc2c1[O][Mn][O]c1c(cc(COP(=O)(O)O)nc1C)CN(CC(=O)O)CCN(CC(=O)O)C2 [mangafodipir trisodium],0.277
2,CN1CCN(C2=Nc3ccccc3Oc3ccc(Cl)cc32)CC1 [Loxapine succinate],0.646
3,COc1ccc(CN2CCN(C(c3ccc(F)cc3)c3ccc(F)cc3)CC2)c(OC)c1OC [lomerizine hydrochloride],-0.953
4,CC(=O)Nc1ccccc1 [acetanilide],0.733
5,COc1ccc(C2Sc3ccccc3N(CCN(C)C)C(=O)C2OC(C)=O)cc1 (stereo not drawn) [diltiazem hydrochloride],0.355
6,CN1CCC[C@@H]1CCO[C@](C)(c1ccccc1)c1ccc(Cl)cc1 [clemastine],-0.584
7,C#C[C@]1(O)CCC2C3CCc4cc(O)ccc4C3CC[C@@]21C (stereo partly drawn) [ethinyl estradiol],-0.639
8,CC1(C)[C@@H]2CC[C@@]1(C)C(=O)C2 [camphor (1r)],-0.41
9,O=c1[nH]c(=O)n(C2C[C@@H](O)[C@@H](CO)O2)cc1F (stereo partly drawn) [floxuridine],0.253
10,O=C1CC[C@@H](C(=O)O)N1 [pidolic acid],-0.00148
11,CCOc1ccccc1C(N)=O [ethenzamide],-0.812
12,CN/C(=C\[N+](=O)[O-])NCCSCc1ccc(CN(C)C)o1 [Ranitidine hydrochloride],0.378
13,CC1(C)S[C@@H]2[C@H](NC(=O)[C@H](NC(=O)N3CCNC3=O)c3ccccc3)C(=O)N2[C@H]1C(=O)O [azlocillin sodium],0.339
14,O=C(O)c1cn(C2CC2)c2cc(N3CCNCC3)c(F)cc2c1=O [ciprofloxacin],-0.626
15,CCCCCCCCCc1ccc(OCCOCCOCCOCCOCCOCCOCCOCCOCCO)cc1 [nonoxynol-9],-0.705
16,Nc1nc(/C(=C/CC(=O)O)C(=O)N[C@@H]2C(=O)N3C(C(=O)O)=CCS[C@H]23)cs1 [ceftibuten],0.385
17,CC(NCCC(c1ccccc1)c1ccccc1)c1ccccc1 (stereo not drawn) [fendiline hydrochloride],0.504
18,CN1C(C)(C)CCCC1(C)C [pempidine tartrate],0.362
19,NC(N)=NCCCC(N)C(=O)O (stereo not drawn) [arginine hydrochloride],0.793
20,C[N+](C)(C)CCCCCC[N+](C)(C)C [Hexamethonium dichloride],0.445
21,CC(S)C(=O)NCC(=O)O (stereo not drawn) [tiopronin],0.236
22,O=C(O)CCCCCCCC(=O)O [azelaic acid],0.0729
23,CNC[C@H](O)c1ccc(O)c(O)c1 [adrenaline bitartrate],0.827
